{"sequences": {"note": "The chains behind the UniProt entries cited, without tags or fusion partners.", "UniProt P14416, whole entry": "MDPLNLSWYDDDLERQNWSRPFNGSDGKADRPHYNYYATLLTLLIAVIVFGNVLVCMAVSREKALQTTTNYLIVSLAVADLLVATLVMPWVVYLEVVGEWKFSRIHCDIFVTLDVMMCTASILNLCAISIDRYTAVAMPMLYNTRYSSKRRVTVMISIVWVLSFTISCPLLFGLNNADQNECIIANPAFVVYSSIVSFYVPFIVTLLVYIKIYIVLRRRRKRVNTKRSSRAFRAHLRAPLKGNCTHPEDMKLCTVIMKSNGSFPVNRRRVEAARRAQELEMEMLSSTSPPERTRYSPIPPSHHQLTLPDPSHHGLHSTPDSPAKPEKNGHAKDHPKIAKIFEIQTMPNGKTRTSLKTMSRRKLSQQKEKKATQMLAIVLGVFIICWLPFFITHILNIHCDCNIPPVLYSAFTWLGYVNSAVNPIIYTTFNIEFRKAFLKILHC"}, "source": "paper PMC12186844", "about": "(ACS Chemical Neuroscience, 2025)", "biological_target": "D2LR (Homo sapiens, UniProt P14416)", "assay": "inhibition of forskolin-stimulated cAMP production, BRET biosensor;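 also: Flp-In-CHO cells stably expressing CAMYEL cAMP BRET sensor, agonist plus 10 µM forskolin, net BRET after forskolin-vehicle subtraction, parameters from complete operational model of allosterism and agonism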", "type": "cell-based"}
{"molecule": "CCN(CC)C(=O)N[C@H]1C=C2c3cccc4[nH]cc(c34)C[C@H]2N(C)C1", "note": "[lisuride, reference compound]", "values": [{"measurement": "LogτA", "value": "0.62 ± 0.05"}, {"measurement": "τA", "value": 4.2}]}
